In article PMC6436931, “Activation of the Endonuclease that Defines mRNA 3′ Ends Requires Incorporation into an 8-Subunit Core Cleavage and Polyadenylation Factor Complex” (Molecular Cell, 2019) one finds binding data, which are given here for three molecules.

Sequences of proteins named here, by UniProt entry; tags and fusion partners are left off. A change or cut given only in a name is not applied to a line headed by its entry.
UniProt Q06632: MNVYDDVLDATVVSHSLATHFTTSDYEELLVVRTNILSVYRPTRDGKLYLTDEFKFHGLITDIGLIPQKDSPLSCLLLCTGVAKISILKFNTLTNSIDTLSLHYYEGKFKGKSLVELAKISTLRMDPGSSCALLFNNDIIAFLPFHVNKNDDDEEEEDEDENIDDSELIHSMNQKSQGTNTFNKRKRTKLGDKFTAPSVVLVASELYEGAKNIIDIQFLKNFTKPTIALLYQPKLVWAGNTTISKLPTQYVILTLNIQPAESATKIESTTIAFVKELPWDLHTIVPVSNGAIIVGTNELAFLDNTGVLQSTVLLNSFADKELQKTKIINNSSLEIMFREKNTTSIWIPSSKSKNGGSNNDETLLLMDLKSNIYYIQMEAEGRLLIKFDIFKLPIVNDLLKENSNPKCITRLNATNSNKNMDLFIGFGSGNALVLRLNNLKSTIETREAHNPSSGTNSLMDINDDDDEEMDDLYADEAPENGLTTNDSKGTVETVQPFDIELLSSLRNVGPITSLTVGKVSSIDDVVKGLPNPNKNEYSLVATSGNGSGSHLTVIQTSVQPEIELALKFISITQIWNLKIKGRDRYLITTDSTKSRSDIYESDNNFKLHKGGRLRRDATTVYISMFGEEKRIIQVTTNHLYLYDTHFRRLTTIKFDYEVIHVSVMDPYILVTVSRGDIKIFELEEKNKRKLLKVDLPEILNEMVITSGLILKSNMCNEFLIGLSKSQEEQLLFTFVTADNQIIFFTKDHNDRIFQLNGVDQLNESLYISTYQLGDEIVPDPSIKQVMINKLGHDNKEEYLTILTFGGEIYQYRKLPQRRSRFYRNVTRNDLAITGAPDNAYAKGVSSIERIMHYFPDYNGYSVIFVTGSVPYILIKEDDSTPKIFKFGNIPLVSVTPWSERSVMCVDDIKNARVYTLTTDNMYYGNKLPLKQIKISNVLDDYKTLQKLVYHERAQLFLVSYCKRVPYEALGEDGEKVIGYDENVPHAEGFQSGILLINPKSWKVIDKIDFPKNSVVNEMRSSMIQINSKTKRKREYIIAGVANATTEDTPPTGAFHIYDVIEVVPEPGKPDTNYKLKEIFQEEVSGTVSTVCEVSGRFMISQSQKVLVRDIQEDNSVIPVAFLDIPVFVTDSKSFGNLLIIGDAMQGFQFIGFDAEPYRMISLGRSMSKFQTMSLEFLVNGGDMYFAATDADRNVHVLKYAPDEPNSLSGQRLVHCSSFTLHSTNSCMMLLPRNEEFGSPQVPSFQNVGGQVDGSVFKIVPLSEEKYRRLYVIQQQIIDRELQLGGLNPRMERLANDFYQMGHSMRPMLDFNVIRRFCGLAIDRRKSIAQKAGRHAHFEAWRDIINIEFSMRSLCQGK

Results are given in words; binding and its absence hold for the method and conditions named. For some assays here: Binding seen in cells or lysates may run through a third protein. Some binding calls cover weakened binding; strength is not graded here. For some assays here: Where a sequence is shown, tags or fusion partners need not be part of it.

Assay [1] deals with T1, Mpe1-3C-SII (full length, C-terminal StrepII tag) (S. cerevisiae) (UniProt P35728).
T1 sequence: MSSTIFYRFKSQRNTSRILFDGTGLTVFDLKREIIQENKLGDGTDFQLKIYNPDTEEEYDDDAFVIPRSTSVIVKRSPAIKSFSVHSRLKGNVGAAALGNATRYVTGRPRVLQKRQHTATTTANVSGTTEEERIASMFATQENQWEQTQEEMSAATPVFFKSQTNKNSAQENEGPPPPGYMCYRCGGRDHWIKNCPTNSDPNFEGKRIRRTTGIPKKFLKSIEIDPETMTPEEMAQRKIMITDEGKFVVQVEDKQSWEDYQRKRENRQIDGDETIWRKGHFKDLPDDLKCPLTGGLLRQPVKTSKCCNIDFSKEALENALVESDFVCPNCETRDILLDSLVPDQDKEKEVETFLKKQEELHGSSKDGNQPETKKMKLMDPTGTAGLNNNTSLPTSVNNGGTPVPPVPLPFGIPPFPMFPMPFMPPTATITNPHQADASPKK
Nature of the assay: HDX-MS; purified Ysh1-Mpe1, Ysh1-Yjr141w and Ysh1-Mpe1-Yjr141w complexes; ~95% D2O, 10 mM HEPES pH 7.9, 150 mM NaCl, 1 mM TCEP, 23°C; 0.3, 3, 30 and 300 s in triplicate; difference plots of Ysh1 peptides with and without a partner; both purified.

Assay [2] has as its target T1, Mpe1-3C-SII (full length, C-terminal StrepII tag) (S. cerevisiae). The assay is described as follows: cryo-EM structure; cross-linked Ysh1-Mpe1-Yjr141w at 350 nM in 10 mM HEPES pH 7.9, 150 mM NaCl; Volta phase plate; anisotropic 4.8 Å map filtered to 6 Å; crystal structure docked; both purified.
Assay [3] shares this target. Nature of the assay: anion exchange chromatography; complexes identified by the Strep-Tactin pull-down subjected to anion exchange chromatography; SDS-PAGE of what stayed associated; both purified.
Assay [4] has the same target. Nature of the assay: pull-down; pairs of Ysh1 and Mpe1 constructs co-expressed with full-length Cft2 in insect cells (baculovirus); StrepII-tagged Mpe1 constructs captured from cell lysates on Strep-Tactin resin; SDS-PAGE.
In assay [5] the target is T2, SII-3C-Yjr141w (N-terminal StrepII tag) (S. cerevisiae) (UniProt P47172).
T2 sequence: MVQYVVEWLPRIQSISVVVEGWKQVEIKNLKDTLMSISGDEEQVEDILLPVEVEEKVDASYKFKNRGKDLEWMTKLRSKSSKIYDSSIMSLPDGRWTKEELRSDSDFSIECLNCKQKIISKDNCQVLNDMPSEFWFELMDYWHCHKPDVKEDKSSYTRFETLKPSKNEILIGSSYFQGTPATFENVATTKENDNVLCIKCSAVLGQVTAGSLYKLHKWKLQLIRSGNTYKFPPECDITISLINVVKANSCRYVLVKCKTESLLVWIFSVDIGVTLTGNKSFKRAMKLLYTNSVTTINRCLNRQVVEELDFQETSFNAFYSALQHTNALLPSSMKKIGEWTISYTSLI
The assay is described as follows: co-purification (StrepTactin affinity, anion exchange, size exclusion chromatography); subunits co-expressed in Sf9 cells; complex captured by the one StrepII-tagged subunit, Mono Q 100-1000 mM NaCl gradient, Superose 6 Increase in 10 mM HEPES pH 7.9, 150 mM NaCl, 1.0 mM TCEP; SDS-PAGE; both purified. (In general: In gel filtration, larger molecules generally elute earlier.)

For assay [6], the target named is T1, Mpe1-3C-SII (full length, C-terminal StrepII tag) (S. cerevisiae). The description is as above.
The target in assay [7] is T3, Pfs2-3C-SII (S. cerevisiae) (UniProt P42841).
T3 sequence: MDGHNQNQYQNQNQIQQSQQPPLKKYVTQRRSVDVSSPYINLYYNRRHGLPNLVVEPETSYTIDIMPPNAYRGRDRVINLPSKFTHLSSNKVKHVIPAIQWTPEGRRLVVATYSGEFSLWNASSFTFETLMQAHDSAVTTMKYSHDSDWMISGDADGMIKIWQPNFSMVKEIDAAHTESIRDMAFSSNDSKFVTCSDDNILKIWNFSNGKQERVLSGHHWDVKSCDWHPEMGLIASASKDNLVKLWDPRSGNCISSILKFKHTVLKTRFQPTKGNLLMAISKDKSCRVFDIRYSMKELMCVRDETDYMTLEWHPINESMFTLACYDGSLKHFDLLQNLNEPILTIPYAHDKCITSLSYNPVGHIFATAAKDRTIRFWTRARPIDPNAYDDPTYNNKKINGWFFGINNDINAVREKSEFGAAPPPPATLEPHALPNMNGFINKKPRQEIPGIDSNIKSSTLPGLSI
Described as above.

For assay [8], the target named is T2, SII-3C-Yjr141w (N-terminal StrepII tag) (S. cerevisiae). The assay is described as follows: cross-linking; purified Ysh1-Mpe1, Ysh1-Yjr141w and Ysh1-Mpe1-Yjr141w complexes cross-linked with DSBU (BuUrBu) or DSS H12/D12, 45 min, 37°C, 100- or 50-fold excess; trypsin digest, LC-MS/MS; both purified.
In assay [9] the target is T1, Mpe1-3C-SII (full length, C-terminal StrepII tag) (S. cerevisiae). The description is as above.
For assay [10], the target named is CPF_(core): Cft1-Pfs2_(-3C-SII)-Yth1_(-3C-8H)-Fip1-Pap1-Cft2-Ysh1-Mpe1 (S. cerevisiae) (UniProt Q06632). The assay is described as follows: pull-down; Strep-tagged bait proteins and complexes (100 μL at 1.5 μM) immobilised on Streptactin beads; prey CF IA, CF IB, Rna14-Rna15 or Pcf11-Clp1 (20 μL at 4.0 μM) bound 60 min at 4°C; 10 mM HEPES pH 7.9, 150 mM NaCl, 0.5 mM Mg(OAc)2, 0.05% Tween-20; SDS-PAGE, InstantBlue; both purified.

In assay [11] the target is T4, Mpe1 UBL domain (residues 1–120), crystallized (S. cerevisiae) (UniProt P35728).
T4 sequence: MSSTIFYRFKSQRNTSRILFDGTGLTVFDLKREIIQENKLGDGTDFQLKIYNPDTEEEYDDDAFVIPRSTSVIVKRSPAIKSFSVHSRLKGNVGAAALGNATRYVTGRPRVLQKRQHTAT
Nature of the assay: crystal structure; co-expressed, purified Ysh1-Mpe1 complex at 8.3 mg/ml in 10 mM HEPES pH 7.9, 150 mM NaCl, 1.0 mM TCEP; sitting drop, 26% w/v PEG 3000, 0.1 M CHES pH 8.7, room temperature; 2.3 Å; both purified.

B1: Ysh1 (full length, untagged) (enzyme, UniProt Q06224 1-779)
chain: MERTNTTTFKFFSLGGSNEVGRSCHILQYKGKTVMLDAGIHPAYQGLASLPFYDEFDLSKVDILLISHFHLDHAASLPYVMQRTNFQGRVFMTHPTKAIYRWLLRDFVRVTSIGSSSSSMGTKDEGLFSDEDLVDSFDKIETVDYHSTVDVNGIKFTAFHAGHVLGAAMFQIEIAGLRVLFTGDYSREVDRHLNSAEVPPLSSNVLIVESTFGTATHEPRLNRERKLTQLIHSTVMRGGRVLLPVFALGRAQEIMLILDEYWSQHADELGGGQVPIFYASNLAKKCMSVFQTYVNMMNDDIRKKFRDSQTNPFIFKNISYLRNLEDFQDFGPSVMLASPGMLQSGLSRDLLERWCPEDKNLVLITGYSIEGTMAKFIMLEPDTIPSINNPEITIPRRCQVEEISFAAHVDFQENLEFIEKISAPNIILVHGEANPMGRLKSALLSNFASLKGTDNEVHVFNPRNCVEVDLEFQGVKVAKAVGNIVNEIYKEENVEIKEEIAAKIEPIKEENEDNLDSQAEKGLVDEEEHKDIVVSGILVSDDKNFELDFLSLSDLREHHPDLSTTILRERQSVRVNCKKELIYWHILQMFGEAEVLQDDDRVTNQEPKVKEESKDNLTNTGKLILQIMGDIKLTIVNTLAVVEWTQDLMNDTVADSIIAILMNVDSAPASVKLSSHSCDDHDHNNVQSNAQGKIDEVERVKQISRLFKEQFGDCFTLFLNKDEYASNKEETITGVVTIGKSTAKIDFNNMKILECNSNPLKGRVESLLNIGGNLVTPLC
Turning to B1, the binding entry in [1], in [2], in [3], in assay [4], in assay [5] and in assay [6] was “binds” throughout. Moreover, the binding entry in [7], in [8] and in assay [9] was “binds” each time.

B2: CF IB (6H-Hrp1) (protein, UniProt Q99383 1-534)
chain: MSSDEEDFNDIYGDDKPTTTEEVKKEEEQNKAGSGTSQLDQLAALQALSSSLNKLNNPNSNNSSSNNSNQDTSSSKQDGTANDKEGSNEDTKNEKKQESATSANANANASSAGPSGLPWEQLQQTMSQFQQPSSQSPPQQQVTQTKEERSKADLSKESCKMFIGGLNWDTTEDNLREYFGKYGTVTDLKIMKDPATGRSRGFGFLSFEKPSSVDEVVKTQHILDGKVIDPKRAIPRDEQDKTGKIFVGGIGPDVRPKEFEEFFSQWGTIIDAQLMLDKDTGQSRGFGFVTYDSADAVDRVCQNKFIDFKDRKIEIKRAEPRHMQQKSSNNGGNNGGNNMNRRGGNFGNQGDFNQMYQNPMMGGYNPMMNPQAMTDYYQKMQEYYQQMQKQTGMDYTQMYQQQMQQMAMMMPGFAMPPNAMTLNQPQQDSNATQGSPAPSDSDNNKSNDVQTIGNTSNTDSGSPPLNLPNGPKGPSQYNDDHNSGYGYNRDRGDRDRNDRDRDYNHRSGGNHRRNGRGGRGGYNRRNNGYHPYNR
For the molecule B2, the binding result in assay [10] is reported as “no binding (tested: 20 μL of prey at 4.0 μM added)”.

B3: Ysh1 catalytic domain (residues 1–473), crystallized (domain or fragment, UniProt Q06224 1-473)
chain: MERTNTTTFKFFSLGGSNEVGRSCHILQYKGKTVMLDAGIHPAYQGLASLPFYDEFDLSKVDILLISHFHLDHAASLPYVMQRTNFQGRVFMTHPTKAIYRWLLRDFVRVTSIGSSSSSMGTKDEGLFSDEDLVDSFDKIETVDYHSTVDVNGIKFTAFHAGHVLGAAMFQIEIAGLRVLFTGDYSREVDRHLNSAEVPPLSSNVLIVESTFGTATHEPRLNRERKLTQLIHSTVMRGGRVLLPVFALGRAQEIMLILDEYWSQHADELGGGQVPIFYASNLAKKCMSVFQTYVNMMNDDIRKKFRDSQTNPFIFKNISYLRNLEDFQDFGPSVMLASPGMLQSGLSRDLLERWCPEDKNLVLITGYSIEGTMAKFIMLEPDTIPSINNPEITIPRRCQVEEISFAAHVDFQENLEFIEKISAPNIILVHGEANPMGRLKSALLSNFASLKGTDNEVHVFNPRNCVEVDLEFQ
As for B3, in assay [11], the binding entry is given as “binds”.
